In PubChem BioAssay AID493014 (National Center for Advancing Translational Sciences (NCATS), 2011) one finds AC50 data, which are given here for 41 compounds.

This is one part of the list. Further columns of the screen follow, without active or inactive calls. Most of these compounds were active or inconclusive in the main read-out, so they are no random draw. The note in brackets gives the kind of curve behind each potency; many fits are weak.

The assay in a line: qHTS Assay to Find Inhibitors of Chronic Active B-Cell Receptor Signaling. The following applies: ABC-DLBCL IkBa-CBG/CBR reporter, luminescence ratio (green luciferase fused to IkBa over red control in TMD8 lymphoma cells), 4 h. A digest of the protocol: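 TMD8 human ABC-DLBCL cells with doxycycline-inducible IκBα–green luciferase fusion and unfused red luciferase, in 0.5% FBS medium; compounds up to 46 uM, 4 h at 37C. Green/red luminescence ratio, filter-overlap corrected, fitted to concentration-response curves.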

Setting [1] is: measured here: CBR red luminescence, cell number.

The term AC50 denotes the concentration giving half of the maximal activity seen.

Regarding `CC1Sc2ccc(S(=O)(=O)N3CCN(c4cccc(Cl)c4)CC3)cc2NC1=O` (configuration not stated), the AC50 under setting [1] was 11.2 µM [falling, partial curve].
With `S=C(N=Nc1ccccc1)NNc1ccccc1`, the AC50 under setting [1] was 23.1 µM [rising, single point].
Regarding `O=C(CCl)NC(=O)NC12CC3CC(CC(C3)C1)C2`, the concentration at half-maximal activity (AC50) under setting [1] was 6.51 µM [falling, partial curve].
On the same count and under the same terms, the value for `Cc1c(N=Cc2c(O)n(C3CCCCC3)c(=O)[nH]c2=O)c(=O)n(-c2ccccc2)n1C` was 1.12 µM [rising, full curve, poor fit]; that for `O=C(CN1C(=O)C2CC=CCC2C1=O)Nc1nc(-c2ccc(F)c(F)c2)cs1` (configuration not stated) was 16.4 µM [falling, partial curve, poor fit]; that for `N/C(=N\OC(=O)C1CCCCC1)c1ccc(Br)cc1` was 11.2 µM [rising, partial curve, poor fit].
As to `Cc1ccc(OCc2nc(-c3cccs3)no2)c([N+](=O)[O-])c1`, the AC50 under setting [1] is 0.631 µM [rising, full curve, poor fit].
For `CCc1nnnn1-c1ccc([N+](=O)[O-])cc1C`, the AC50 under setting [1] is 22.4 µM [rising, single point].
`Cc1ccc(C(=O)OCC(=O)Nc2ccc3c(c2)OCO3)c(O)c1`: the AC50 under setting [1] is 1.3 µM [rising, partial curve, poor fit].
The same measure, in the same setting: the value for `CCN(CC)c1ccc(NC(=O)c2ccc3c(c2)OCO3)cc1` was 8.91 µM [falling, partial curve, poor fit]; that for `Cc1cccc(/N=C/c2c(O)[nH]c3ccccc23)n1` was 17.8 µM [falling, single point].
Still for that read-out and setting: for `COc1ccc(N=NC2=C(O)CC(C)(C)CC2=O)cc1` the value was 35.5 µM [falling, single point].
On to `COc1cccc2cc(CC(=O)c3ccc(C)cc3C)c(=O)oc12`, for which, under setting [1], the AC50 was 2 µM [falling, partial curve, poor fit].
As to `COc1ccc(/C=N/n2cnc3scc(-c4cccs4)c3c2=O)cc1OC`, the concentration at half-maximal activity (AC50) under setting [1] is 3.66 µM [rising, partial curve, poor fit].
Turning to `CC1(C)Cc2c(C#N)c(SCC(=O)c3ccccc3)nc(N3CCOCC3)c2CO1`, the concentration at half-maximal activity (AC50) under setting [1] was 0.282 µM [rising, full curve, poor fit].
As to `CCCCC12CN3CCN(CC(C3)/C1=N\NC(=O)c1ccccc1N)C2`, the AC50 under setting [1] was 25.9 µM [falling, partial curve].
As for `CCc1nc2ccccc2c(C(=O)OCc2nc3ccccc3c(=O)[nH]2)c1C`, the AC50 is, setting by setting: under setting [1], 8.2 µM [rising, full curve, poor fit]; (measured here: IkBa-CBG green luminescence) 4.61 µM [falling, partial curve].
As for `COc1ccc(SCCc2ccncc2)cc1`, under setting [1], the concentration at half-maximal activity (AC50) is 31.6 µM [rising, single point].
On the same count and under the same terms, for `CCCCN(C)Cc1c(O)ccc2c(-c3ccccc3)cc(=O)oc12` the value was 20.6 µM [falling, single point].
Turning to `CCC(=O)Nc1cccc(C2=NOC3(C2)C[C@@H](C(N)=O)N(C(=O)c2cc([N+](=O)[O-])cc([N+](=O)[O-])c2)C3)c1` (some centres not stated), the AC50 under setting [1] was 35.5 µM [rising, single point].
With `COc1ccc(CCNC(=O)/C=C\c2ccccc2)cc1OC`, under setting [1], the half-maximal activity concentration (AC50) is 29.1 µM [rising, single point].
`N/C(=N\OC(=O)CCc1ccccc1)c1ccc(Br)cc1`: under setting [1], the concentration at half-maximal activity (AC50) is 0.282 µM [rising, full curve, poor fit].
As to `COCCN=C1NN=C(c2ccc(NC(C)=O)cc2)CS1`, the AC50 under setting [1] is 15.8 µM [rising, single point].
On the same count and under the same terms, for `Fc1ccc(-c2nnc(-c3ccc(F)cc3)o2)cc1` the value was 22.4 µM [rising, partial curve, poor fit].
Still for that read-out and setting: for `Nc1ncnc(N2CCc3ccccc32)c1[N+](=O)[O-]` the value was 4.47 µM [falling, partial curve, poor fit]; for `COc1ccc(C)c(S(=O)(=O)Nc2ccc(OCC(=O)O)cc2)c1`, 6.51 µM [falling, single point].
Regarding `CC(C)(C)c1ccc(OCCNC(=O)c2ncn[nH]2)cc1`, under setting [1], the AC50 was 20.6 µM [rising, single point].
Take `CC(OC(=O)CN1C(=O)C2CC=CCC2C1=O)C(=O)Nc1ccc(F)cc1Cl` (configuration not stated): the AC50 under setting [1] was 11.2 µM [rising, single point].
As to `O=C(CN1C(=O)NC2(CCCCCCC2)C1=O)Nc1cccc(Br)c1`, the concentration at half-maximal activity (AC50) under setting [1] was 8.2 µM [falling, single point].
Turning to `COc1ccc2nc(SCC(=O)Nc3ccc4[nH]c(=O)[nH]c4c3)[nH]c2c1`, under setting [1], the concentration at half-maximal activity (AC50) is 0.82 µM [rising, full curve, poor fit].
`CCOc1cc2[nH]c(=S)n(CCCN3CCOCC3)c(=O)c2cc1OCC`: the AC50 under setting [1] was 0.092 µM [falling, full curve, poor fit].
Same read-out and setting: for `COc1ccccc1NC(=O)CCN1C(=O)/C(=C\c2cc(OC)c(OC)c(OC)c2)SC1=S` the value was 0.0891 µM [rising, full curve, poor fit]; for `CCC(C)Oc1cccc(OCCCCN2C(=O)NC(C)(C)C2=O)c1` (configuration not stated), 0.13 µM [rising, partial curve, poor fit]; for `CCOc1ccc(C(=O)/C=C/c2ccc(SC)cc2)cc1`, 17.8 µM [falling, single point].
Consider `COc1ccccc1/C=C/C(=O)OCc1nc2ccccc2c(=O)[nH]1`, for which, under setting [1], the AC50 was 11.2 µM [falling, partial curve, poor fit].
Turning to `CCCc1cc(-c2[nH]ncc2-c2ccc3c(c2)OCCCO3)c(O)cc1O`, under setting [1], the AC50 was 11.2 µM [falling, partial curve].
Take `O=C(NCc1ccco1)C(c1ccco1)N(CCc1ccccc1)C(=O)Cn1nnc2ccccc21` (configuration not stated): the AC50 under setting [1] was 20 µM [falling, single point].
Regarding `C/C(=N\NC(=O)c1ccc(NS(=O)(=O)c2cccs2)cc1)c1ccncc1`, the concentration at half-maximal activity (AC50) under setting [1] is 10 µM [falling, partial curve].
For `CN1CCCN(C(=O)c2cc(-c3ccc(Cl)c(Cl)c3Cl)nc3ccccc23)CC1`, the AC50 under setting [1] was 10 µM [falling, partial curve].
`COC(=O)c1ccccc1NC(=O)c1ccc2c(c1)OCCCO2`: under setting [1], the AC50 is 10 µM [falling, partial curve, poor fit].
On the same count and under the same terms, for `CC(=O)c1cc(-c2ccccc2)n(CCC(=O)NCc2cccs2)c1C` the value was 5.17 µM [rising, full curve, poor fit].
